## Percent effect of library compounds

Chains of the proteins cited; added tags and fusions are not shown.
UniProt P9WPC5, whole entry: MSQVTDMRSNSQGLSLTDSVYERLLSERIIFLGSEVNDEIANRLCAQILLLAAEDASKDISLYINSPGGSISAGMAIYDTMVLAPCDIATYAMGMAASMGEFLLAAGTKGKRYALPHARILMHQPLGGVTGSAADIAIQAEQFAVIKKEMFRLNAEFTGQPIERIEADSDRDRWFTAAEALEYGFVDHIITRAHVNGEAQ
UniProt P9WPC3, whole entry partner: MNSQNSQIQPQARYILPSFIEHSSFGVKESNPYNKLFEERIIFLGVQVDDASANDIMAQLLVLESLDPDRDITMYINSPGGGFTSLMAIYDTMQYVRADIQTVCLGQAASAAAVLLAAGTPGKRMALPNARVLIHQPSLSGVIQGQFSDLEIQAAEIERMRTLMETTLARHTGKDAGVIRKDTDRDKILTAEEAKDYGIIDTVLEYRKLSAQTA

The values are deposited in ChEMBL (CHEMBL3988442, “University of Dundee, Small-Polar-MMV Screening Library” (2021)).

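ClpP1P2, Mycobacterium tuberculosis (UniProt P9WPC5 and UniProt P9WPC3). Protease assay of ClpP1P2, read by the AMC dye that it sets free. Compounds at 50 µM. Direction is inferred from only a few compounds that gave an IC50; most scored high, so higher reads as stronger inhibition. Most other retested compounds had strongly negative values. About 69,000 compounds were tested under these conditions; 0.015% (about 10) showed 50% or more at least once.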

The filed quantity is “Percent Effect” (%).
How 0% and 100% were set is not recorded. Most values in the screen are low, and negative values occur.
Compounds were drawn at random from those tested, without regard to their results.

Cc1cccc(NCc2nn(C)c(=O)[nH]2)c1 read -5.83%. Result for CCC(CN1CCCC1)n1cncc1-c1cnn(-c2ccc(F)cc2)c1 (configuration not stated) was -14.1%. CCSc1ncc(CN2CCN(c3ccc(C#N)cc3)C(=O)C2)cn1 gave -12.78%. O=C(Cn1nc(-c2ccc(F)cc2)oc1=O)Nc1ccccc1 gave 23.08%. COCC(=O)NCCCn1ncc2c(C)cccc21 gave -7.315%.

Result for FC(F)(F)C1CN(Cc2cccc(OCc3ccccn3)c2)CCO1 (configuration not stated) was 7.453%. NC(=O)c1c(-c2ccc(Cl)cc2Cl)csc1NC(=O)CCC(=O)O gave -12.78%. Result for Cc1cccc(C(=O)N2CCSCC2)c1NC(=O)c1cccnc1 was -13.03%. O=C(c1cn2cc(Cl)ccc2n1)N1CCC(CCn2cccn2)CC1 gave 5.575%. COc1cc(F)c(NC(=O)N(C)Cc2cc(C)on2)cc1F read -11.02%.

For CC(C)[C@H](NC(=O)NC1CCS(=O)(=O)C1)C(=O)NCc1ccc(Cl)cc1 (some centres not stated) the result was -11.91%. Result for O=C(CCn1cc(Cl)cn1)N1CCC2(CC1)OCCCC2O (configuration not stated) was 13.21%. Result for O=C(CN1CCOC(Cn2cccn2)C1)NCCc1cccs1 (configuration not stated) was -27.31%. CCc1cccc(N2CCC(NC(=O)C3CCCO3)CC2)c1 (configuration not stated) read 1.988%. With OCCCNc1nc(O)c2c(n1)-c1ccccc1CC21CCCCC1 the screen gave -24.64%.

For COc1ccc2c(C)nc(N3C[C@@H](C)O[C@@H](C)C3)nc2c1 the result was -10.32%. With CN(Cc1cc(Br)cn1C)C(=O)c1cc(Cl)ccn1 the screen gave -5.004%. Result for COc1nccnc1N1CCC2(CC1)C(=O)N(C)c1ccccc12 was -12.45%. Cc1cnn(CCNCc2nnc(Cc3ccccc3)o2)c1 gave 18.04%. Result for CC(C)(C)CC(=O)N1CC[C@H]2CC(=O)N(CCc3c[nH]cn3)CC[C@H]2C1 was -11.47%.

For Cn1cc(C(O)CNC(=O)c2ccc(F)cc2Cl)cn1 (configuration not stated) the result was -9.348%. With COCC1CC2(CCN(C(=O)c3ccccc3C)CC2)CN1C(C)C (configuration not stated) the screen gave -7.114%. For O=C(c1ccno1)N1CCO[C@@H]2CC(COCc3ccccn3)C[C@H]21 (some centres not stated) the result was -6.919%.

For reference, 3 entries once more:

| compound | percent effect |
|---|---|
| `O=C(CN1CCOC(Cn2cccn2)C1)NCCc1cccs1` (configuration not stated) | -27.31% |
| `OCCCNc1nc(O)c2c(n1)-c1ccccc1CC21CCCCC1` | -24.64% |
| `COc1ccc2c(C)nc(N3C[C@@H](C)O[C@@H](C)C3)nc2c1` | -10.32% |